Patent publication US20130090249A1
No constants are given. Whether binding was seen depends on the method and setting. For part of these data: Binding seen in cells or lysates may run through a third protein. Some entries that bind do so weakly or less than the wild type.

By UniProt entry, the sequences of proteins in these tests, tags left out. Where a name states a change or a piece, a line headed by the entry shows the natural chain unless it says otherwise. Chains listed by the source or under a name are the forms on record and can include a tag or linker.
UniProt Q7L985: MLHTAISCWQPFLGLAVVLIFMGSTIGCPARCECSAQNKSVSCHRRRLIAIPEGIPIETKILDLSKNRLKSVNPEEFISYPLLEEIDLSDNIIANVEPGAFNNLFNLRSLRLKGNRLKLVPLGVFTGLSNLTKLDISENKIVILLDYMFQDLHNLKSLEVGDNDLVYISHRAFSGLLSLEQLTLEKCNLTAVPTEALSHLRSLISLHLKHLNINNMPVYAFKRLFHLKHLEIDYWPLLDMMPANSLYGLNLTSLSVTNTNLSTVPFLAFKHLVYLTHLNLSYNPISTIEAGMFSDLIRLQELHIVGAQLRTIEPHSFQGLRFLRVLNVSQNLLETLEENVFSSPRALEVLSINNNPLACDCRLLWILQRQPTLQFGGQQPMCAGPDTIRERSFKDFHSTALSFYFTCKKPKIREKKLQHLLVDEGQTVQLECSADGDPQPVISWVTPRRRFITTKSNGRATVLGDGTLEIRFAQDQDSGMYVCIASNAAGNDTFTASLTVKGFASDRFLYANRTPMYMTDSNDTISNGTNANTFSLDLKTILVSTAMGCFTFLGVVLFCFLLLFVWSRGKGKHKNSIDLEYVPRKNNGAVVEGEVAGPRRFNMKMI
Lingo-1 of rat cortical neurons (A0A8I5ZPI2, form named): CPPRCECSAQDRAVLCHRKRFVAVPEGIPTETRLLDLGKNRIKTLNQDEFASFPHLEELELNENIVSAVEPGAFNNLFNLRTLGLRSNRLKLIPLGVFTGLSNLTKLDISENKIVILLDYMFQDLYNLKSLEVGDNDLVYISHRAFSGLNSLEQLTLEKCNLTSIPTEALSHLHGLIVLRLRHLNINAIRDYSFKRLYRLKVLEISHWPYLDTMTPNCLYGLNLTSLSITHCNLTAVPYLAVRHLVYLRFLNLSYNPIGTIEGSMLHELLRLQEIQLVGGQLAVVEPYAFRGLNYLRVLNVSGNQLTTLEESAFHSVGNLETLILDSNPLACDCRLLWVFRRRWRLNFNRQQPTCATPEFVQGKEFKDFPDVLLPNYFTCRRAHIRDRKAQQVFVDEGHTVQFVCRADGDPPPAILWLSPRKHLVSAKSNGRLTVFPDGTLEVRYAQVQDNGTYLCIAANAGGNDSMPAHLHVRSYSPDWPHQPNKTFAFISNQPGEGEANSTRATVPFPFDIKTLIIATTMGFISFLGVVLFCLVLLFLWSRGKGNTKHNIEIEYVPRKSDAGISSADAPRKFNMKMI
UniProt Q96FE5: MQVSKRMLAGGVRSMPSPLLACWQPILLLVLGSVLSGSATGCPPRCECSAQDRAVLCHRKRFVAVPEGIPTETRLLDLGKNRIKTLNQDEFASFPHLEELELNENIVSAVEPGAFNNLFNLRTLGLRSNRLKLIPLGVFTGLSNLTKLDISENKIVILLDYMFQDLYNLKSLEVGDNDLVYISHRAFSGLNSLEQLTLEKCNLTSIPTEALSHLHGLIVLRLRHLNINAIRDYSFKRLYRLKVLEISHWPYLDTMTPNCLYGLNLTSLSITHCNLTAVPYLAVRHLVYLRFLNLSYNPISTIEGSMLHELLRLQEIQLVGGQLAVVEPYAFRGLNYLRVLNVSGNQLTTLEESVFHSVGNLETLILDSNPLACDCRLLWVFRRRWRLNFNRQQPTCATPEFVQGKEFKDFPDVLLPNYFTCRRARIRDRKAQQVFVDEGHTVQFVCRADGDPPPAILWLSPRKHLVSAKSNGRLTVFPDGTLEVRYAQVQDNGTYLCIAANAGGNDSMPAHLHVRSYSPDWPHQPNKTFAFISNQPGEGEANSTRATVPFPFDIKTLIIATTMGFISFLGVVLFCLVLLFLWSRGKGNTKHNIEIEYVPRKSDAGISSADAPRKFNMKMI

Assays:
[1] = molecular target: Lingo-1 of rat cortical neurons (rat); experiment: DSP chemical bridging of live rat cortical neurons, anti-Lingo-1 Western blot
Lingo-2-YFP (human) = Lingo-2-YFP (human) (UniProt Q7L985); experiment: BRET saturation in live HEK-293 cells, 96-well plates
Lingo-1-eYFP (human) = experiment: coimmunoprecipitation from cotransfected HEK-293 cells, anti-HA beads, anti-YFP Western blot

## Lingo-1 of rat cortical neurons (from UniProt A0A8I5ZPI2 36-614) (receptor)
[1]
  binding: binds

## Lingo-2-RLuc (from UniProt Q7L985 28-606)
Lingo-2-YFP (human)
  binding: binds

## Lingo-1-HA (from UniProt Q96FE5 42-620) (receptor)
Lingo-1-eYFP (human)
  binding: binds
